# Test results: PubChem BioAssay AID2685 (National Center for Advancing Translational Sciences (NCATS), 2010)
# Several values for one entry are separate records, joined by “and”; a condition that tells them apart may be missing. Equal values may be shown once. The list shows a part of the results. Shown are side measurements of this screen, not its main read-out; they come without a call. The list favours compounds with an active or inconclusive main result. The note in brackets gives the kind of curve behind each potency; many fits are weak.
# Assay: qHTS Assay for Lipid Storage Modulators in Drosophila S3 Cells;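 on cell number change: cells counted by Cell Tracker Red CMTPX staining in the red channel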
# Settings: BODIPY lipid droplet fluorescence, 18-24 h; for cell number change: measured here: cell count max response, cells fed with added oleic acid
# In short: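 Drosophila S3 cells got compounds at several concentrations plus oleic acid (400 uM solution). Laser-scanning cytometry with 488 nm excitation read lipid droplets at 500-530 nm and cells at 575-640 nm. Percent activity was relative to 20 uM Triacsin C.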
# [1] = measured here: lipid fluorescence (Fed channel) AC50, cells fed with added oleic acid
# [2] = measured here: cell number channel AC50, cells fed with added oleic acid
Structure (SMILES),cell number change,AC50 [1],AC50 [2]
Cc1ccc(NC(=O)C(C)OC(=O)CCN=C2NS(=O)(=O)c3ccccc32)cc1 (configuration not stated),-13.3%,"2.31 µM [rising, single point]",–
Cc1ccc(C)c(OCC(=O)NCC(c2ccco2)N2CCCCC2)c1 (configuration not stated),–,"32.6 µM [falling, single point]","3.26 µM [falling, partial curve]"
Nc1ccc2nc(SCC(=O)N3CCN(c4ccccc4)CC3)sc2c1,16%,"0.164 µM [rising, partial curve, poor fit]",–
Cc1cccc(Nc2nnc(SCC(=O)Nc3ccccc3[N+](=O)[O-])s2)c1C,12.2%,–,"6.51 µM [rising, partial curve, poor fit]"
CCOC(=O)c1ccc(NCc2nc3ccccc3n2C)cc1,-30.8%,–,"29.1 µM [falling, single point]"
O=C(O)C1CCCN1S(=O)(=O)c1ccc2c(c1)CCC2 (configuration not stated),2.49%,"5.8 µM [falling, full curve]",–
Clc1ccc(Cn2ccc(C3CC3)n2)cc1,4.96%,–,"2.91 µM [falling, single point]"
O=C(Nc1cccc(-c2nc3ccccc3[nH]2)c1)c1ccc(C(=O)Nc2cccc(-c3nc4ccccc4[nH]3)c2)cc1,-70.7%,"2.31 µM [falling, full curve]","2.59 µM [falling, full curve]"
COCCNC(=O)c1csc2c1CCCC2,9.67%,"3.26 µM [falling, partial curve]",–
COC(=O)c1cc(NC(=O)c2cc3ccccc3o2)cc(C(=O)OC)c1,-29.9%,"13 µM [falling, partial curve]",–
CCC(=O)c1ccc(OCC(=O)OCC(=O)c2cc(C)n(C3CC3)c2C)cc1,-7.5%,–,–
Cc1cc(NC(=O)CCC(=O)N(CC(=O)NCC2CCCO2)c2cccc(F)c2)no1 (configuration not stated),19.6%,"0.13 µM [rising, partial curve, poor fit]",–
COc1ccc(C2=C(CN(C)C)C(c3ccccc3)c3ccccc3O2)cc1 (configuration not stated),-39.4% and -157%,"14.6 µM [falling, partial curve] and 29.1 µM [falling, single point]","5.17 µM [falling, full curve]"
CN1CCN(c2nc3c(c(=O)[nH]c(=O)n3C)n2Cc2cccc3ccccc23)CC1,43.8%,"6.51 µM [falling, single point]","20.6 µM [rising, single point]"
COC(=O)[C@@H]1CCCN1Cc1nc(Cc2ccc(OC)c(OC)c2)no1,20.4%,"29.1 µM [rising, single point]",–
CCN(CC)S(=O)(=O)c1ccc2c(c1)c(=O)c(C(=O)NCCCN(C)c1ccccc1)cn2C,14.1%,"2.31 µM [rising, full curve, poor fit]",–
Cc1ccc(NC(=O)Nc2cnc3ccccc3c2)cc1,-27.7%,–,–
CCN(CC)C(=O)Cn1cc(SCC(=O)NCc2ccco2)c2ccccc21,-12.9%,–,"0.82 µM [falling, single point]"

Structure (SMILES),cell number change,AC50 [1],AC50 [2]
N=C1S/C(=C\c2ccc(-c3ccccc3C(=O)O)o2)C(=O)N1c1ccc2c(c1)OCO2,-30%,"29.1 µM [falling, single point]","29.1 µM [falling, single point]"
Brc1ccc(CNc2cc3c(cc2Br)OCCO3)cc1,–,–,"0.461 µM [rising, single point]"
Cc1ccc(-c2csc3nnc(SCC(=O)N4CCN(Cc5ccccc5)CC4)n23)cc1,-12.1%,"4.61 µM [rising, partial curve]",–
O=C(Nc1nnc(COc2ccccc2)s1)C1CCN(S(=O)(=O)c2ccc(Cl)cc2)CC1,-49.6%,"5.8 µM [falling, single point]","13 µM [falling, partial curve, poor fit]"
Cc1ccc(N(C)S(=O)(=O)c2cccc(C(=O)Nc3nnc(C4CC4)s3)c2)cc1,19.1%,–,"4.61 µM [rising, single point]"
CC(C)(C)c1cc(=O)[nH]c(SCc2ccccc2)n1,-16.3%,–,"0.82 µM [falling, single point]"
COc1cc(C(=O)NCC2CCCO2)ccc1OCc1c(C)noc1C (configuration not stated),–,"6.51 µM [falling, partial curve]","5.8 µM [falling, single point]"
Cc1ccc(CCNC(=O)c2ccc(CS(=O)(=O)Cc3ccccc3F)o2)cc1,–,"4.11 µM [falling, partial curve]",–
COc1ccccc1NC(=O)Nc1nc(CC(=O)Nc2ccccc2F)cs1,-9.94%,"29.1 µM [falling, single point]",–
CC(C)c1ccc(NC(=O)COC(=O)/C=C/c2cccc([N+](=O)[O-])c2)cc1,15.5%,"20.6 µM [rising, single point]",–
COc1ccc(NC(=O)CN2CCN(S(=O)(=O)c3ccc(Cl)cc3)CC2)cc1Cl,-20.1%,–,–
COc1cccc(N2CCN(C(=O)c3ccc(CS(=O)c4ccc(Cl)cc4)o3)CC2)c1 (configuration not stated),0.295%,–,–
O=C1C2N=NN(CC(=O)N3N=C(c4ccccc4)CC3c3ccc([N+](=O)[O-])cc3)C2C(=O)N1c1ccccc1 (configuration not stated),146%,–,"29.1 µM [rising, single point]"
COc1ccc(OC)c(NC(=O)CCS(=O)(=O)c2cc3c(cc2C)NC(=O)CO3)c1,-23.9%,"0.58 µM [falling, single point]",–
CCc1ccccc1N(CC(=O)N1CCN(c2ccccc2)CC1)S(C)(=O)=O,-7.85%,"3.66 µM [rising, single point]",–
COC(=O)C1=CN(C2CC2)C=C(C(=O)OC)C1c1ccc(C(=O)OC)cc1,4.74%,"0.116 µM [falling, single point]",–
COc1ccccc1OCc1nc(Cc2ccc(Cl)cc2)no1,-9.69%,"29.1 µM [rising, single point]",–
COc1ccc2c(c1OC)C(=O)N(c1cccc(C)c1)C2,-36.9%,"0.092 µM [falling, full curve, poor fit]","14.6 µM [falling, partial curve]"

# One compound at a time (already shown). Order of values: cell number change	AC50 [1]	AC50 [2]
# Cc1ccc(CCNC(=O)c2ccc(CS(=O)(=O)Cc3ccccc3F)o2)cc1 as listed: –	4.11 µM [falling, partial curve]	–
# COC(=O)C1=CN(C2CC2)C=C(C(=O)OC)C1c1ccc(C(=O)OC)cc1 as listed: 4.74%	0.116 µM [falling, single point]	–
